Data as given in patent US8426433B2, priority 2007, dated 2013).
At least one compound was matched to its structure with a doubt left.

System: endogenous thrombin potential in normal donor plasma (PPP)
Assay: Thrombin generation test (endogenous thrombin potential) in normal donor plasma
Type: biochemical
Details: for IC50: normal donor plasma, read-out: IC50 (50% reduction in endogenous thrombin potential)
Excerpt: This method was described in detail in many papers (Hemker H C, Giesen P L, Ramjee M, Wagenvoord R, Beguin S. The thrombogram: monitoring thrombin generation in platelet-rich plasma. Thromb. Haemost., 2000; 83(4): 589-591; Hemker H C, AlDieri R, Beguin S. Thrombin generation assays: accruing clinical relevance. Curr. Opin. Hematol., 2004, 11(3):170-175; Hemker H C, Giesen P, AlDieri R, Regnault V, de Smed E, Wagenvoord R, Lecompte T, Beguin S. The calibrated automated thrombogram (CAT): a universal routine test for hyper- and hypocoagulability. Pathophysiol. Haemost. Thromb., 2002, 32(5-6):249-253). The test is used to measure the kinetics and total quantity of active thrombin generated in a plasma sample over a specified time at a standard clotting activation level in the sample. These applicants' method is suitable for measuring thrombin concentration using a slow-action fluorogenic substrate (BOC-Ile-Gly-Arg-AMC), which gives a highly fluorescent product, 7-amino-4-methylcoumarin (AMC), when broken d own by thrombin. The use of a fluorogenic, rather than chromogenic, substrate is dictated by the fact that the fluorescence level in the sample is virtually unaffected by the solid fibrin clot formed in the metering cell, but this is a qualification that restricts the application of a chromogenic substrate (Hemker H C, Giesen P, AlDieri R, Regnault V, de Smed E, Wagenvoord R, Lecompte T, Beguin S. The calibrated automated thrombogram (CAT): a universal routine test for hyper- and hypocoagulability. Pathophysiol. Haemost. Thromb., 2002, 32(5-6):249-253). On the other hand, it is common knowledge that the bulk of thrombin (about 95%) in the sample is generated after the first clot has already formed (Hemker H C, AlDieri R, Beguin S. Thrombin generation assays: accruing clinical relevance. Curr. Opin. Hematol., 2004, 11(3):170-175).
The kinetics of thrombin generation and ultimately loss in plasma after clotting activation is shown in FIG. 1, which illustrates the relationship between concentration of active thrombin in a plasma sample and time. The area under the thrombin generation time curve (in this invention, from 0 to 50 minutes of incubation) is called endogenous thrombin potential (ETP). The curve is further characterized by tmax, the time when thrombin in the sample reaches maximum concentration, Amax, the maximum thrombin concentration in the system, and tlag, the time before clotting commencement, which is conventionally the time when thrombin reaches a concentration of 5 nM.
Obviously, important clotting information is contained in the shape of thrombin concentration to time curves, as well as the integral ETP level. In particular, against the background of low factor and clotting inhibitor concentration, thrombin concentration maximums can be lower and also broader, although the total ETP might not change at all. The presence of additional thrombin inhibitors in plasma must reduce ETP and maximum attainable thrombin concentration, and increase the clotting lag and the time required for thrombin to achieve maximum concentration.
Measurements were taken as follows: 90 microliters of normal donor plasma (PPP), 0 to 20 microliters of the test substance solution, and 20 to 0 microliters of buffering solution (20 mM of HEPES, 140 mM of NaCal, pH 7.5) were deposited in the holes of a 96 hole board so that the total volume of added substance and buffer is always 20 microliters. […]

SMILES | IC50 [µM] | Effect on plasma clotting with growth in concentration (thrombin generation test, FIG. 5-8)
Cc1cc(OCCCSC(=N)N)cc(OS(=O)(=O)c2ccccc2)c1.I [HC-018s-IOC, 3-(3-methyl-5-(benzenesulfonyloxy)phenoxy)propyl-isothiouronium iodide] | 7.9 | –
Cc1cc(OCCSC(=N)N)cc(OS(=O)(=O)c2ccccc2)c1 [HC-020s-IOC, 2-(3-methyl-5-(benzenesulfonyloxy)phenoxy)ethyl-isothiouronium iodide] | 0.9 | plasma clotting slows down significantly
Cc1cc(OCCC[n+]2ccsc2N)cc(OS(=O)(=O)c2ccccc2Cl)c1 [HC-024s-IOC, 2-(3-methyl-5-(2-chlorobenzenesulfonyloxy)phenoxy)ethyl-isothiouronium iodide] | 9.3 | –
Cc1cc(OCCCSC(=N)N)cc(OS(=O)(=O)c2ccccc2Cl)c1 [HC-026s-IOC, 3-(3-methyl-5-(2-chlorobenzenesulfonyloxy)phenoxy)propyl-isothiouronium iodide] | 4.1 | –
